Changes are numbered by the printed parent chain. No constants are given. Whether binding was seen depends on the method and setting. Binding seen in cells or lysates may run through a third protein. Some results given as binding are weak or reduced against the parent protein; the word gives no strength. Sequences can lack the tags named with a protein.
Experiments:
[1] = target: T1, GST-ZFPM2/FOG2 p.M544I (human) (UniProt Q8WW38); assay: pull-down; GST-ZFPM2/FOG2 (wild type or mutant) bound to 200 µl glutathione resin (Pierce GST Protein Interaction Pull-Down kit), incubated with GATA4 fragment at 4°C; washed with 25 mM Tris-HCl pH 7.2, 150 mM NaCl; eluate on SDS-PAGE, Coomassie staining
T1 sequence: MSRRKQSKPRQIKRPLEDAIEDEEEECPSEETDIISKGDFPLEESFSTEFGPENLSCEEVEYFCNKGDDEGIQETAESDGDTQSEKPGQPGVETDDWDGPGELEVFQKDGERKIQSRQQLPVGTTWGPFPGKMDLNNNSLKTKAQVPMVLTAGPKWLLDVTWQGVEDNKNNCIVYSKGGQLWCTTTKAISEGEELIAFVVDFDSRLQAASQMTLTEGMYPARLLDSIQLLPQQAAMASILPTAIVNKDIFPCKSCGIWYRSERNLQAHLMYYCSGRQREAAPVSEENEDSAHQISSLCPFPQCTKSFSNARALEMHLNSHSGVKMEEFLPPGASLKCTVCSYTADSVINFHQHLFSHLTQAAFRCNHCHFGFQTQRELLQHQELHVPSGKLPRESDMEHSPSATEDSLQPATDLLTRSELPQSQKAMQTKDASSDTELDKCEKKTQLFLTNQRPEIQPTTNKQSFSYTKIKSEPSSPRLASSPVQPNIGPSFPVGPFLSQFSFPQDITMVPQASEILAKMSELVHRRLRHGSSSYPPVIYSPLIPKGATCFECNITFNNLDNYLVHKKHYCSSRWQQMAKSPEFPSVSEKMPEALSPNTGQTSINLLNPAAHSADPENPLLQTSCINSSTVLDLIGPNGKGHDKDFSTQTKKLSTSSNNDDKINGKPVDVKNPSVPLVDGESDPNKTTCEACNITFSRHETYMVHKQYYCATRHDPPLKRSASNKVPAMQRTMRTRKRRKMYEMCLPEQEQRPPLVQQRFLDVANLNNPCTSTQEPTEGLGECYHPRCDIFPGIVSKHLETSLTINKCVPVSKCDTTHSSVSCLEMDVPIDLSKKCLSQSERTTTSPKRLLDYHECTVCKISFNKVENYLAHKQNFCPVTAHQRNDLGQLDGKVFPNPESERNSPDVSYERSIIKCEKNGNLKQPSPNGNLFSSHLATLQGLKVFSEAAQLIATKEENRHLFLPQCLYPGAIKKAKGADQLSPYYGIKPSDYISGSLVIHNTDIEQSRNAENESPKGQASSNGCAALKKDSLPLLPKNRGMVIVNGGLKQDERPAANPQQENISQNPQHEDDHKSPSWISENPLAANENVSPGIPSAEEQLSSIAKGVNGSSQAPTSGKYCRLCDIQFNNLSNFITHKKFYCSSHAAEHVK

Sequences of proteins named here, by UniProt entry; tags and fusion partners are left off. Residues count along the entry.
UniProt P43694, residues 200-254: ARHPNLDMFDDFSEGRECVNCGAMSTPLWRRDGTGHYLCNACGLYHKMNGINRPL

[2] = target: T2, GST-ZFPM2/FOG2 wild type (human) (UniProt Q8WW38); assay: as above
T2 sequence: T1 sequence with I544M

For “N-terminal zinc-finger sequence of GATA4 (residues 200-254) (from UniProt P43694 200-254) (domain or fragment)”, the binding [1] was “binds” and the binding [2] was “binds”.
